Measured values reported in paper PMC4356144, “The kinase LYK5 is a major chitin receptor in Arabidopsis and forms a chitin-induced complex with related kinase CERK1” (eLife, 2014).
These are yes or no findings as the source states them, for the method shown. For some of these results: Binding seen in cells or lysates may run through a third protein. Some results given as binding are weak or reduced against the parent protein; the word gives no strength. Where a sequence is shown, tags or fusion partners need not be part of it. Values belong to the binder of their own block, whether it stands above or below them.

Columns and labels:
[1] = target: AtLYK5-Myc (Myc-tagged AtLYK5) (Arabidopsis thaliana) (UniProt O22808); assay: co-IP; HA- and Myc-tagged proteins co-expressed in Arabidopsis protoplasts (Col-0; for AtLYK5 with itself also Atcerk1 mutant); with or without 1 µM chitooctaose or other chitin oligomers (15 min); IP with anti-Myc antibody; lysis in 50 mM Tris pH 7.6, 150 mM NaCl, 0.5% Triton X-100
[2] = target: AtLYK5-HA (full length AtLYK5 under its native promoter in Atlyk5-2 mutant plants) (Arabidopsis thaliana) (UniProt O22808); assay: SDS-PAGE with reducing agent and immunoblot; crude protein of transgenic Arabidopsis expressing AtLYK5-HA in Atlyk5-2, boiled 5 min after adding 50 mM DTT; anti-HA blot
[3] = target: T1, AtCERK1 (endogenous, precipitated with anti-AtCERK1 antibody) (Arabidopsis thaliana (endogenous in Arabidopsis plants)) (UniProt A8R7E6); assay: co-IP; IP with anti-AtCERK1 antibody from transgenic Arabidopsis Atlyk5-2 plants expressing AtLYK5, AtLYK5 K395E or AtLYK5 ΔKD; tissue harvested before or 15 min after 1 µM chitooctaose
T1 sequence: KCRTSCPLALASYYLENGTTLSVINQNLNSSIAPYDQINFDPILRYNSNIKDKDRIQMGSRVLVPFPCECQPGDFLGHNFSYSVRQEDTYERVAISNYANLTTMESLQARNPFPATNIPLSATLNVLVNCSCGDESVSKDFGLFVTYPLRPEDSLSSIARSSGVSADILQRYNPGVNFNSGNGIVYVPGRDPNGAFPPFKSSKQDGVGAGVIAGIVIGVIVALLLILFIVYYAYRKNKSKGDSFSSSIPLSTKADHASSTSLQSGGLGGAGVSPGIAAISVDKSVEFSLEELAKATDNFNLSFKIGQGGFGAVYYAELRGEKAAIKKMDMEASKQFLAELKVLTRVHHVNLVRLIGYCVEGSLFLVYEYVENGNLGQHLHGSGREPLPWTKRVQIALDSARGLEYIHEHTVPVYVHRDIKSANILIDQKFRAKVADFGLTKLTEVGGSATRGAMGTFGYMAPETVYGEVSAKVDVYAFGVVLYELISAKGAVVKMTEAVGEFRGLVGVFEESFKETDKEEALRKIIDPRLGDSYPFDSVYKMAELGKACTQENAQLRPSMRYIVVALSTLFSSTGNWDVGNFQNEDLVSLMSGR

[4] = target: T2, AtLYK4-Myc (Myc-tagged AtLYK4) (Arabidopsis thaliana) (UniProt O64825); assay: co-IP; HA- and Myc-tagged proteins co-expressed in Arabidopsis protoplasts (Col-0; for AtLYK5 with itself also Atcerk1 mutant); with or without 1 µM chitooctaose or other chitin oligomers (15 min); IP with anti-Myc antibody; lysis in 50 mM Tris pH 7.6, 150 mM NaCl, 0.5% Triton X-100
T2 sequence: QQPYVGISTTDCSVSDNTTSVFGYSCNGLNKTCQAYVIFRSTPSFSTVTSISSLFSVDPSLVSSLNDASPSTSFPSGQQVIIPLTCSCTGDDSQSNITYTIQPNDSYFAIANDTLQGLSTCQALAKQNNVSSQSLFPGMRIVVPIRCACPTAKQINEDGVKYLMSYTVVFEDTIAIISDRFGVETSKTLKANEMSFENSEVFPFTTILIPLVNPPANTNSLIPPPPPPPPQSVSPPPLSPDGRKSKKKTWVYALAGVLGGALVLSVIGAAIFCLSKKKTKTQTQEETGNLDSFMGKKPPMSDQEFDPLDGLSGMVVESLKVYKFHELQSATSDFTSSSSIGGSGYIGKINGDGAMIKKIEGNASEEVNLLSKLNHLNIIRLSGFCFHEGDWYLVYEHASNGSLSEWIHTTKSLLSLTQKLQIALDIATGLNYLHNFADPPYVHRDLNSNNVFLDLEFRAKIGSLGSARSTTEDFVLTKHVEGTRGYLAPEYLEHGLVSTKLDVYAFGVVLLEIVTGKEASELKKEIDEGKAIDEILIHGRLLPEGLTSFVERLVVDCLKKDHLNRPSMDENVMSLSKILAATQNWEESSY

B2: AtLYK5-HA (full length AtLYK5 under its native promoter in Atlyk5-2 mutant plants) (receptor, Arabidopsis thaliana, UniProt O22808 27-664, looked up)
chain: QQPYVNNHQLACEVRVYDNITNGFTCNGPPSCRSYLTFWSQPPYNTADSIAKLLNVSAAEIQSINNLPTATTRIPTRELVVIPANCSCSSSSGGFYQHNATYNLSGNRGDETYFSVANDTYQALSTCQAMMSQNRYGERQLTPGLNLLVPLRCACPTAKQTTAGFKYLLTYLVAMGDSISGIAEMFNSTSAAITEGNELTSDNIFFFTPVLVPLTTEPTKIVISPSPPPPPVVATPPQTPVDPPGSSSSHKWIYIGIGIGAGLLLLLSILALCFYKRRSKKKSLPSSLPEENKLFDSSTKQSIPTTTTTQWSIDLSNSSEAFGLKSAIESLTLYRFNDLQSATSNFSDENRIKGSVYRATINGDDAAVKVIKGDVSSSEINLLKKLNHSNIIRLSGFCIREGTSYLVFEYSENGSISDWLHSSGKKSLTWKQRVEIARDVAEALDYLHNYITPPHIHKNLESTNILLDSNFRAKIANFGVARILDEGDLDLQLTRHVEGTQGYLAPEYVENGVITSKLDVFAFGVAVLELLSGREAVTIHKKKEGEEEVEMLCKVINSVLGGENVREKLKEFMDPSLGNEYPLELAYTMAQLAKSCVATDLNSRPSVTQVLTTLSMIVSSSIDWEPSDDLLRSGSLGN
notes: AtLYK5 (At2g33580), Arabidopsis thaliana; genomic fragment with the 1.8 kb promoter and the coding region up to the stop codon, in pGWB13; also called wild-type AtLYK5; source: transgenic Arabidopsis (Atlyk5-2 background, native promoter), in crude extract or lysate
binding [2]: no binding (condition: boiled with 50 mM DTT)

B4: AtCERK1-HA (HA-tagged AtCERK1, chitin elicitor receptor kinase 1) (receptor, UniProt A8R7E6 24-617)
chain: T1 sequence
binding [4]: binds

Now from value to binder:

binding [1]: binds
B1: AtLYK5-Myc (Myc-tagged AtLYK5) (receptor, UniProt O22808 27-664)
chain: B2 chain

binding [3]: no binding
B3: AtLYK5^ΔKD (1–320 aa, deletion of kinase domain) with a C-terminal HA tag (domain or fragment, UniProt O22808 27-320)
chain: QQPYVNNHQLACEVRVYDNITNGFTCNGPPSCRSYLTFWSQPPYNTADSIAKLLNVSAAEIQSINNLPTATTRIPTRELVVIPANCSCSSSSGGFYQHNATYNLSGNRGDETYFSVANDTYQALSTCQAMMSQNRYGERQLTPGLNLLVPLRCACPTAKQTTAGFKYLLTYLVAMGDSISGIAEMFNSTSAAITEGNELTSDNIFFFTPVLVPLTTEPTKIVISPSPPPPPVVATPPQTPVDPPGSSSSHKWIYIGIGIGAGLLLLLSILALCFYKRRSKKKSLPSSLPEENKL
